42 sequences from PMC7819943, “Rice protein-binding microarrays: a tool to detect cis-acting elements near promoter regions in rice” can be followed below.

Protein sequences, listed by entry. Tags and fused reporters are not part of them.
UniProt Q0JBA9, entry or part of it: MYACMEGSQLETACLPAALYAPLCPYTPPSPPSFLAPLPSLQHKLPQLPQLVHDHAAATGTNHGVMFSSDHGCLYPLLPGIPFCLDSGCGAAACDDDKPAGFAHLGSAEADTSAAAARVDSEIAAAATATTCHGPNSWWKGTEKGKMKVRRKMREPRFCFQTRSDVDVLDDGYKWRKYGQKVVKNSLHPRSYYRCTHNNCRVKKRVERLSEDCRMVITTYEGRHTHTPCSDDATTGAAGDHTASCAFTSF

The list shows a part of the results.

For the experiment, the target named is OsWRKY34 (Oryza sativa, UniProt Q0JBA9 1-250). Nature of the experiment: protein-binding microarray (RPBM); PBS, 2% BSA, 51.3 ng/ul salmon testes DNA, 50 uM zinc acetate, 200 nM TF, 25 C, 1 h; high values mean tight binding. The settings on record: protein: recombinant; tags: N-terminal polyhistidine and DsRed monomer fusion (pET32a); label: CyDye5-dUTP incorporated in the synthesized complementary strand; 3' TTTTT single-stranded linker to array surface; dsDNA, one strand shown. In short, it runs like this: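 In PBS with 2% BSA, salmon testes DNA and 50 µM zinc acetate, 200 nM protein was incubated on a custom Agilent array at 25 °C for 1 h and then washed off. The array had been made double-stranded by primer extension with Cy5-dUTP and blocked with 2% BSA. The proteins were transcription factors fused N-terminally to polyhistidine and DsRed, expressed in E. coli BL21-CodonPlus and purified on Ni–NTA. The binding signal is per-feature fluorescence intensity (arbitrary units) from an Axon 4000B scanner.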
As for “AACGCGATTCGTCCACGACCATGACATGCGATCACCCCACCGGAGTCACCTAGTGCAG”, the binding signal was 8610 fluorescence intensity (a.u.). With “CACGTTTGCCATTTTCTCGGTTTGGACCATGCGTATAGGTCGGAGTCACCTAGTGCAG” the figure was 9200 fluorescence intensity (a.u.). For “GTCGCGGATGGTGGAAAGGGAGGCAGGGGTTGGGCCTTGGCGGAGTCACCTAGTGCAG” the value was 9760 fluorescence intensity (a.u.); for “CCGCTGTGGGATTCTTGCCGATTCTTGCCGTCCAACCGCCCGGAGTCACCTAGTGCAG”, 9640 fluorescence intensity (a.u.). For “CTGGTCCAGTCTTCTAAGATGCTCATAGGGATAGGGTTTGCGGAGTCACCTAGTGCAG” the value was 8300 fluorescence intensity (a.u.); for “TTGTTTCCTCATGTTCGTCAATGCAATCAGGTTAATTAACCGGAGTCACCTAGTGCAG”, 8400 fluorescence intensity (a.u.); for “TTTTATTTTAGCTTTCTTTTTACTTCATTCATACATACATCGGAGTCACCTAGTGCAG”, 8160 fluorescence intensity (a.u.).

In the case of “CCGCTTCAGGCTGCTTCTCTCTCTCCCATCGCTATTGTTCCGGAGTCACCTAGTGCAG”, the binding signal was 10300 fluorescence intensity (a.u.). For “ACGTGGGCCCGAAGCGCACTCTGGCCCCACATGCCAGTCACGGAGTCACCTAGTGCAG” the value was 8180 fluorescence intensity (a.u.); for “TCCGTGCCCCGACGTTCCTCCACGATTACCTCCGGCTCTCCGGAGTCACCTAGTGCAG”, 10300 fluorescence intensity (a.u.). For “TCGACCACCATTGCCCGTATTCCTCGGTGTCCATCTTTGACGGAGTCACCTAGTGCAG” the value was 10200 fluorescence intensity (a.u.); for “CTGAAGATTGGATCTAAACTTTGTATCTAAACACAGCCATCGGAGTCACCTAGTGCAG”, 64300 fluorescence intensity (a.u.); for “CGCCGAAAATACGAAATTTCAGATCCCGCCCGCCATCTCACGGAGTCACCTAGTGCAG”, 9620 fluorescence intensity (a.u.). As to “CCCACCCGCCAGTCTAATTGGGTAGACCCAGTCCAAAATACGGAGTCACCTAGTGCAG”, the binding signal was 8840 fluorescence intensity (a.u.).

On to “CATTGAACGATGGAACAAAAAGCGGCAGCAAGCTGTTGACCGGAGTCACCTAGTGCAG”, for which the binding signal was 8150 fluorescence intensity (a.u.).

In the case of “GTGGGATTCGCCTGCTTGCTTGCTGGGGCCTTGGGAAATGCGGAGTCACCTAGTGCAG”, the binding signal is 8230 fluorescence intensity (a.u.).

On to “CTTATTCCTATCCGAAATTTCTCTCTTTGTTGTATGTTACCGGAGTCACCTAGTGCAG”, for which the binding signal is 14100 fluorescence intensity (a.u.). With “CTATCTCTCTTGCTTCAGCCAACAGCTTGACCACCCTGCACGGAGTCACCTAGTGCAG” the figure was 10200 fluorescence intensity (a.u.); with “GGCACCGATCCAGCATATAGCTCCAAATACACTCTACTCTCGGAGTCACCTAGTGCAG”, 8690 fluorescence intensity (a.u.). Consider “ACACTAACTTCATCTTCGATACTTTCTCCGTTTCGTATTACGGAGTCACCTAGTGCAG”, for which the binding signal was 9110 fluorescence intensity (a.u.). For “CGCCACCCTGTTCCGCCGCCCGCTCCGCCGGCCTGCTCCGCGGAGTCACCTAGTGCAG” the value was 8270 fluorescence intensity (a.u.); for “CTAATTGTTGATGTCATGTTGTTGGATACCTTTTTCCTTACGGAGTCACCTAGTGCAG”, 8610 fluorescence intensity (a.u.); for “CGGTGTTGGGATCGGGTTTGGAGGTGGTAAGGGTGGTGGTCGGAGTCACCTAGTGCAG”, 10600 fluorescence intensity (a.u.). For “CGTATGCACACCTCCTCAGCCTCGAGCTCCTTTGGAATGCCGGAGTCACCTAGTGCAG” the value was 9280 fluorescence intensity (a.u.); for “TTTGCCTTTTGATTGTATGACTGGAATGCTTGTTGAGCTTCGGAGTCACCTAGTGCAG”, 8100 fluorescence intensity (a.u.).

With “CCGTCGTTTTCGTTCTCCTCTGCTTCGCCTCGGCCACGCTCGGAGTCACCTAGTGCAG”, the binding signal is 9690 fluorescence intensity (a.u.). For “GCCTAGCCGCCGCCTTTATAGCCGCCGCCGGTCGTCGCCGCGGAGTCACCTAGTGCAG” the value was 8460 fluorescence intensity (a.u.); for “TCCCTTCCTTCTTTGCCCCATACTACCATGGATTCCATTCCGGAGTCACCTAGTGCAG”, 8610 fluorescence intensity (a.u.).

As to “GTCCTATCGCGTAGCCCACACTCCACCCTATCGCGCCTTCCGGAGTCACCTAGTGCAG”, the binding signal is 11500 fluorescence intensity (a.u.). For “CTGCTTTCTACACTTGTTCCCTTTTGATTCAGCTTCTGTGCGGAGTCACCTAGTGCAG” the value was 9290 fluorescence intensity (a.u.); for “GCTGCTGGTGGTGGTAGTAGGACTTGGGGCTCGTGTTGTGCGGAGTCACCTAGTGCAG”, 9720 fluorescence intensity (a.u.). For “TCCCCACCAACTTGACCTCTACTCGTCACAGTGTCAAACTCGGAGTCACCTAGTGCAG” the value was 10200 fluorescence intensity (a.u.); for “GTGTGGTGTGTGCTCCTATTTGCTCGTGATCAAGTATAACCGGAGTCACCTAGTGCAG”, 8500 fluorescence intensity (a.u.). With “CTCTATGCTCGACTGAGCGGCCATGTTTTTCTCCGTTTCACGGAGTCACCTAGTGCAG” the figure was 10600 fluorescence intensity (a.u.); with “GGTTCTGTTCTATATACTCCGACACCATACTGATTAGTCTCGGAGTCACCTAGTGCAG”, 10900 fluorescence intensity (a.u.); with “TAGTATAGAGGAGGGAGCGGGCGGGTGATTACAAGACGGACGGAGTCACCTAGTGCAG”, 8900 fluorescence intensity (a.u.). Consider “GCATGTTTCTTCTCTTCTTCCTTTGCTCGGAAGTCTGTCTCGGAGTCACCTAGTGCAG”, for which the binding signal is 8200 fluorescence intensity (a.u.). For “CGGTCGAGCCAGTGAACTCATCACGTTGACCCGGTCGCCACGGAGTCACCTAGTGCAG” the value was 8480 fluorescence intensity (a.u.); for “ATAGGGACTACTCCTATATATGATTGTTGTTACTGTACTTCGGAGTCACCTAGTGCAG”, 8960 fluorescence intensity (a.u.); for “AATTTCGCTATACCACAACGTGCACAATTGATACATTTCCCGGAGTCACCTAGTGCAG”, 10500 fluorescence intensity (a.u.).

With “GCTACTACTGCTGCTGCTGCTACTTATCCACCGCTTTTTTCGGAGTCACCTAGTGCAG”, the binding signal was 13600 fluorescence intensity (a.u.).

On to “GAGAGAGTTACCAACTCATTTTTCACGTGCACGATTTTCACGGAGTCACCTAGTGCAG”, for which the binding signal is 8460 fluorescence intensity (a.u.).
